These are yes or no findings as the source states them, for the method shown. Binding seen in cells or lysates may run through a third protein. Binding calls can cover weak binding; strength is not graded here.
Molecular target: Voltage-dependent anion channel 1 (mouse (endogenous in CMECs)) (UniProt Q60932)
Assay: co-IP; CMEC proteins cross-linked in 1% paraformaldehyde, cells lysed by sonication in PBS with 1% Triton X-100, incubated with the respective antibodies and protein A/G agarose; immunoprecipitates probed with HK2 antibody

The chains behind the UniProt entries cited, without tags or fusion partners. Where a name states a change or a piece, a line headed by the entry shows the natural chain unless it says otherwise.
UniProt Q60932: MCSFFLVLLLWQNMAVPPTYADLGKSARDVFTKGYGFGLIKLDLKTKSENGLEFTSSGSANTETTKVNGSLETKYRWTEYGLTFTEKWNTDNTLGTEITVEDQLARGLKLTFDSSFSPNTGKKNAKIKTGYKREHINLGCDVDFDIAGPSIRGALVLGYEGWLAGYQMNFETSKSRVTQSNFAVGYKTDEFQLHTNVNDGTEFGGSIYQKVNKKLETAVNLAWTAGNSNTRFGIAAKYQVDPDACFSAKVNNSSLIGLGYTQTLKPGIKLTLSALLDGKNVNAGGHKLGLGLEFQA

binding: binds
B1: Hexokinase 2 (enzyme, UniProt O08528 1-917)
chain: MIASHMIACLFTELNQNQVQKVDQYLYHMRLSDETLLEISRRFRKEMEKGLGATTHPTAAVKMLPTFVRSTPDGTEHGEFLALDLGGTNFRVLRVRVTDNGLQRVEMENQIYAIPEDIMRGSGTQLFDHIAECLANFMDKLQIKEKKLPLGFTFSFPCHQTKLDESFLVSWTKGFKSSGVEGRDVVDLIRKAIQRRGDFDIDIVAVVNDTVGTMMTCGYDDQNCEIGLIVGTGSNACYMEEMRHIDMVEGDEGRMCINMEWGAFGDDGTLNDIRTEFDREIDMGSLNPGKQLFEKMISGMYMGELVRLILVKMAKAELLFQGKLSPELLTTGSFETKDVSDIEDDKDGIQKAYQILVRLGLSPLQEDCVATHRICQIVSTRSASLCAATLAAVLWRIKENKGEERLRSTIGVDGSVYKKHPHFAKRLHKAVRRLVPDCDVRFLRSEDGSGKGAAMVTAVAYRLADQHRARQKTLESLKLSHEQLLEVKRRMKVEMEQGLSKETHEAAPVKMLPTYVCATPDGTEKGDFLALDLGGTNFRVLLVRVRNGKRRGVEMHNKIYSIPQEVMHGTGEELFDHIVQCIADFLEYMGMKGVSLPLGFTFSFPCQQNSLDQSILLKWTKGFKASGCEGEDVVTLLKEAIRRREEFDLDVVAVVNDTVGTMMTCGYEDPHCEVGLIVGTGSNACYMEEMRNVELVDGEEGRMCVNMEWGAFGDNGCLDDLRTVFDVAVDELSLNPGKQRFEKMISGMYLGEIVRNILIDFTKRGLLFRGRISERLKTRGIFETKFLSQIESDCLALLQVRAILRHLGLESTCDDSIIVKEVCTVVARRAAQLCGAGMAAVVDKIRENRGLDNLKVTVGVDGTLYKLHPHFAKVMHETVRDLAPKCDVSFLESEDGSGKGAALITAVACRIREAGQR
